Results on nine molecules are retold here after patent WO2019080889A1 (dated 2019).

Amino acid sequences for entries named in this document (tags omitted). Residues count along the entry.
UniProt P07333, residues 20-517: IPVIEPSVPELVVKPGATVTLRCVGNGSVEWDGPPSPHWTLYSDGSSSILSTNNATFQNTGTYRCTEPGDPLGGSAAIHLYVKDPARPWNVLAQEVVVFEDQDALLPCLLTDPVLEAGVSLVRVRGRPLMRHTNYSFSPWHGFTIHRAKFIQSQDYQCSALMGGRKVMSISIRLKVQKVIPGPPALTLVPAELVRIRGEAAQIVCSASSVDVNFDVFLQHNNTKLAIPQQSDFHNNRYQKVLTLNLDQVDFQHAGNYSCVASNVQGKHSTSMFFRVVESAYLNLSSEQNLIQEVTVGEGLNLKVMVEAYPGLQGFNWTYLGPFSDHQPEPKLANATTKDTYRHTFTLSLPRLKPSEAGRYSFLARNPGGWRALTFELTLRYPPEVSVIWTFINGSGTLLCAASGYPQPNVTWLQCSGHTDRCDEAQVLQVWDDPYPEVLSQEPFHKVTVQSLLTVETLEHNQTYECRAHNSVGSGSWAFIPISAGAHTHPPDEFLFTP

Numbering of substitutions follows the chain as printed. Names may count otherwise. These are yes or no findings as the source states them, for the method shown. Some entries that bind do so weakly or less than the wild type.

For assay [1], the target named is cynomolgus monkey CSF-1R-His (cynomolgus monkey). The assay can be described thus: ELISA on cynomolgus CSF-1R-His.
Assay [2] has as its target Human CSF-1R ECD-His (human) (UniProt P07333). The assay can be described thus: SPR (Biacore), antibody captured by anti-human IgG, h-CSF-1R-His as analyte. (In general: SPR reads the build-up and loss of mass on a sensor chip optically.)

B1: anti-CSF-1R chimeric antibody C18C (antibody, V domains shown)
VH: EVQLQQSGPELVKPGASVKISCKASAITFTDYYMNWVKQSPGKGLEWIGDINPNNGGTTYNQKFKGKATLTVDKSSTTAYMELRSLTSEDSAVYYCAREKISMEYYYAMDYWGQGTSVTVSS
VL: DIVLTQSPASLAVSLGQRATISCRASESVSSHDIHLMHWYQQKPGQSPKLLIYAASNLESGVPARFSGSGSATDFTLNIHPVEEEDAATYFCQQSIEDPPTFGGGTKLEIK
As for B1, the binding entry in assay [1] is reported as “binds”.

B2: anti-CSF-1R chimeric antibody C19C (antibody, V domains shown)
VH: B1 VH with K23T, N52Y, S102T
VL: B1 VL with M37I, N57S
Regarding B2, the binding result in assay [1] is reported as “binds”.

B3: anti-CSF-1R chimeric antibody C8C (antibody, V domains shown)
VH: QVQLQQSGTELVQPGASVKMTCKTSGYTFTNYWIAWVKQRPGQGLEWIGEMYPGGGGDNHHEKFKNKASLTVDMSSSTAYMQLSRLTFEDSAVYYCARRDYGNPCFDYWGQGTSLTVSS
VL: DIVLTQSPASLIVSLGQRATISCRASQGVTTSSHSYMHWYQQKLGQSPKLLIKYASNLESGVPARFSGSGSGTDFTLNIHPVEEEDTATYYCQHSWEIPYTFGGGTKLEIK
Consider B3, for which the binding entry in assay [1] is “binds”.

B4: anti-CSF-1R chimeric antibody C6C (antibody, V domains shown)
VH: EVRLQQSGPELVKPGASVKISCKASGYTFTGYYMHWVKQSPEKSLEWIGEINPNTGSCTYNQKFTGKATLTVDKSSSTAYMQLTSLTSEDSAVYYCARLNYYWYFDVWGAGTTVTVSS
VL: DIVMTQSPSSLAMSVGQKVTMSCKSSQTLLNSNDQKNYLAWYQQKPGQSPKLLVYFASTRDSGVPDRFTGSGSGTDFTLTITSVQTEDLAVYYCQQDYSTPFTFGSGTKLEIQ
Turning to B4, in assay [1], the binding entry is reported as “binds”.

B5: anti-CSF-1R chimeric antibody C11C (antibody, V domains shown)
VH: EVQLQQSGPELVKPGASVKISCKASGYTFSNYYMNWVNQRHGERLEWIGEMNPNNGDSSYNQKFKGKATLTVDKSSSTAYMELRSLTSEDSAVYYCARRSPWWFFDVWGPGTTVIVSS
VL: DIVMTQSPSSLTVTAGEKVTMSCKSSQSLLNSGNQKNSLTWYQQKPGQPPKLLIYWASTRESGVPDRFTGSGSGTDFTLTISSVQTEDLAVYYCQNDYTYPFTFGTGTKLEIK
B5: in assay [1], the binding entry is listed as “binds”.

B6: humanized anti-CSF-1R antibody huC11 (antibody, human IgG1, kappa, V domains shown)
VH: EVQLVQSGAEVKKPGASVKVSCKASGYTFSNYYMNWVRQAPGQGLEWMGEMNPNTGDSSYNQKFKGRVTLTVDKSTSTAYMELSSLRSEDTAVYYCARRSPWWFFDVWGQGTMVTVSS
VL: DIVMTQSPDSLAVSLGERATINCKSSQSLLSSGNQKTSLTWYQQKPGQPPKLLIYWASTRESGVPDRFSGSGSGTDFTLTISSLQAEDVAVYYCQNDYTYPFTFGQGTKLEIKR
notes: Full-length chains; also called huC11 (VH-b heavy chain and VL-b light chain)
As to B6, the binding entry in assay [2] is given as “binds”.

B7: humanized anti-CSF-1R antibody huC19 (antibody, human IgG1, kappa, V domains shown)
VH: QVQLVQSGAEVKKPGASVKVSCKASAITFTDYYMNWVKQAPGQGLEWIGDIYPNTGGTTYNQKFKGRVTLTVDTSISTAYMELSRLRSEDTAVYYCAREKITMEYYYAMDYWGQGTLVTVSS
VL: DIQLTQSPSSLSASVGDRVTITCRASESVSSHDIHLIHWYQQKPGKAPKLLIYAASSLESGVPSRFSGSGSGTDFTLTISSLQPEDFATYFCQQSIEDPPTFGGGTKVEIKR
notes: Full-length chains; also called huC19 (VH-c heavy chain and VL-a light chain)
Take B7: the binding result in assay [2] is “binds”.

B8: anti-CSF-1R chimeric antibody C16C (antibody, V domains shown)
VH: QVQLQQSGPELVKPGASVKLSCKASGYTFTTYDINWVKQRPGQGLEWIGWVYPRDGSTKYNEKFKGKATLTVDTSSRTVYMEFHSLTSEDSAVYFCARSGLTGSPFAYWGQGTLVTVSA
VL: KIVLTQSPASLAVSLRQRATISCRASESFDSYGNTFMHWFQQKSGQPPKLLIYRASNLESGVPARFSGSGSRTDFTLTIDPVEADDAATYYCQQNNEYPLTFGSGTKLELK
In the case of B8, the binding entry in assay [1] is listed as “binds”.

B9: anti-CSF-1R chimeric antibody C23C (antibody, V domains shown)
VH: EVQLQQSGPELVKPGTSVKISCQASGYTFTVYYMNWVKQSHGKSLEWIGDIDPNTGDSTYNQKFRGKATLTVDKSSSTAYMELRSLTSEDSAVYYCARYDGYIDYWGQGTTLTVSS
VL: DVVMTQTPLSLPVSLGDQASISCRSSQSIVHSNRHTYLEWYLQKPGQSLKLLIYGVSNRFSGVPDRFSGSGSGTDFTLKISRVEAEDMGIYYCFQGTHVPLTFGAGTKLELK
Take B9: the binding result in assay [1] is “binds”.
